This is an account of results in article PMC4297935.

Sequences of proteins named here, by UniProt entry; tags and fusion partners are left off.
UniProt Q02447: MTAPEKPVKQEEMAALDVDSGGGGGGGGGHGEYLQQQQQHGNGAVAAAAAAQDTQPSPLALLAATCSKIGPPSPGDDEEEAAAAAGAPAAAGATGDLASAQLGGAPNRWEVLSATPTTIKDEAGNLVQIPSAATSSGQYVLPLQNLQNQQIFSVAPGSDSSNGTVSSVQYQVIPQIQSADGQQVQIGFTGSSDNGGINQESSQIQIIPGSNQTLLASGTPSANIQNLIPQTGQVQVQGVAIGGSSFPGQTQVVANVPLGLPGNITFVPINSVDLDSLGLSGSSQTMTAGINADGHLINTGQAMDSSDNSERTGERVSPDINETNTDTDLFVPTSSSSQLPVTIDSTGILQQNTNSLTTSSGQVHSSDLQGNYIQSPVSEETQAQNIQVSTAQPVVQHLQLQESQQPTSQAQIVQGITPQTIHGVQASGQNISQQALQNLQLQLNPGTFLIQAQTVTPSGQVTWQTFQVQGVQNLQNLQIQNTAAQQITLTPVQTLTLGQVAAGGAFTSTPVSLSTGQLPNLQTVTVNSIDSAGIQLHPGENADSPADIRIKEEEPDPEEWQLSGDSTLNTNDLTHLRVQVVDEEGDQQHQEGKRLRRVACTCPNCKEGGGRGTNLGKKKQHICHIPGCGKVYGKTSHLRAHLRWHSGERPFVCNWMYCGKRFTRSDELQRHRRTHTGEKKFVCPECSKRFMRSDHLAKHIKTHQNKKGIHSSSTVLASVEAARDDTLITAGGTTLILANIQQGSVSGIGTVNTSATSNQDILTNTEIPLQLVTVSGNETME
UniProt P08047: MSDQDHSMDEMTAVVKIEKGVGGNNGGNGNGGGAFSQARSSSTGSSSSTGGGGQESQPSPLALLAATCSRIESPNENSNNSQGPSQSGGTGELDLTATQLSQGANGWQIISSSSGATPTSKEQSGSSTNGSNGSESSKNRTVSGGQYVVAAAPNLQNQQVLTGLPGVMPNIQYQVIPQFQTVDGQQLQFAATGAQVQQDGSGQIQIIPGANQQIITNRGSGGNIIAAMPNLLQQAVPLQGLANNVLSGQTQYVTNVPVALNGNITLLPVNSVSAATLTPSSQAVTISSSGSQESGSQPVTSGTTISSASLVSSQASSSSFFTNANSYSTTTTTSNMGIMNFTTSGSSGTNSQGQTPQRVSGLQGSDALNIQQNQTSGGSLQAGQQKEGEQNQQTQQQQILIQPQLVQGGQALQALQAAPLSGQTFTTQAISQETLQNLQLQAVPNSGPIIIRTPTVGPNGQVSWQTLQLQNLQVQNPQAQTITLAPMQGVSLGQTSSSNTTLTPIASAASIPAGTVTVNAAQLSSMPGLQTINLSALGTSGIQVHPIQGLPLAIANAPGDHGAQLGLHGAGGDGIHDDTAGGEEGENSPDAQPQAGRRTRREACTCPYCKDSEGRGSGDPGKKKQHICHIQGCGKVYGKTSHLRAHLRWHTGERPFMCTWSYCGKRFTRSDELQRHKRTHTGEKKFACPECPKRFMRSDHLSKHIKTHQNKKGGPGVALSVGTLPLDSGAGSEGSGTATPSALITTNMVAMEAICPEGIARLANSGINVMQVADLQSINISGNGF
UniProt Q92731: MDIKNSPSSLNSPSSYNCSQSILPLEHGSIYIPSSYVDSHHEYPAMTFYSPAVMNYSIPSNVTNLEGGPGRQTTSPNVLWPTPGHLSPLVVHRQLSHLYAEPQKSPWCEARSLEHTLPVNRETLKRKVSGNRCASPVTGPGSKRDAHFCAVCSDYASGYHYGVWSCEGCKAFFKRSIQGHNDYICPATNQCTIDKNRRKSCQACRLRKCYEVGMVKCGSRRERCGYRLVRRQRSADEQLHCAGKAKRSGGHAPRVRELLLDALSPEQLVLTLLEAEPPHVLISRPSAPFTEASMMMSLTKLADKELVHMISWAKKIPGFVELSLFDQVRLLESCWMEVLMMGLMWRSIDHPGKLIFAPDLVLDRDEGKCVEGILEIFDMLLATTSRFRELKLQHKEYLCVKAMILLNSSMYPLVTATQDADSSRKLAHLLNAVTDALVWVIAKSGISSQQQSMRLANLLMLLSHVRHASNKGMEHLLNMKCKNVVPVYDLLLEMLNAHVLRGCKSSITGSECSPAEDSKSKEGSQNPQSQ

Results are given in words; binding and its absence hold for the method and conditions named. Binding seen in cells or lysates may run through a third protein. Some results given as binding are weak or reduced against the parent protein; the word gives no strength.

The target of experiment [1] is Sp3 (human (endogenous in HAECs)) (UniProt Q02447). As to the kind of experiment: co-IP; IP/IB for Sp3/ERβ from nuclear extracts of treated HAECs; no figure is given.
Experiment [2] deals with specificity protein-1 (Sp1) (human (endogenous in HAECs)) (UniProt P08047). Briefly: co-IP; nuclear extracts of treated HAECs (control, 100 nM E2, or E2 plus ICI 182,780, 48 h) immunoprecipitated with Sp1 antibody, immunoblotted for Sp1, ERα and ERβ. On the technique in general: Immunoblotting shows a protein as a band on a membrane.

Regarding “estrogen receptor beta (ERβ) (from UniProt Q92731 1-530)”, the binding entry is “no binding” in experiment [1] and “binds” in experiment [2].
